Earlier results in patent US20020177624A1, “Acetate-lactate buffering vaginal gel and for method of making same and treating bacterial vaginosis” (priority 2001, published 2002).
At least one structure is not confirmed: it was looked up by name or label, or the drawing left a doubt.

System: bacterial vaginosis
Conditions: oral administration

CCC[C@@H]1C[C@@H](C(=O)N[C@@H]([C@H]2O[C@H](SC)[C@H](O)[C@@H](O)[C@H]2O)[C@H](C)Cl)N(C)C1 [clindamycin]
success of treatment of bacterial vaginosis: often highly successful
